Data set [1] deals with FOXO3a (UniProt O43524). Kind of data set: competition with a labelled probe. Particulars: 50-fold excess abolished binding to probes 1 and 2; […], DTT, glycerol, EDTA, NaCl, MgCl2, Tris; concentrations and pH not stated), room temperature 20 min, protein in an extract.
The target of data set [2] is FOXO3a (UniProt O43524). In words: EMSA. Particulars: 10-20 ug nuclear extract, dose-dependent; […], DTT, glycerol, EDTA, NaCl, MgCl2, Tris; concentrations and pH not stated), room temperature 20 min, protein in an extract, label: 3'-biotin.

Amino acid sequences for entries named in this document (tags omitted). A change or cut given only in a name is not applied to a line headed by its entry.
UniProt O43524: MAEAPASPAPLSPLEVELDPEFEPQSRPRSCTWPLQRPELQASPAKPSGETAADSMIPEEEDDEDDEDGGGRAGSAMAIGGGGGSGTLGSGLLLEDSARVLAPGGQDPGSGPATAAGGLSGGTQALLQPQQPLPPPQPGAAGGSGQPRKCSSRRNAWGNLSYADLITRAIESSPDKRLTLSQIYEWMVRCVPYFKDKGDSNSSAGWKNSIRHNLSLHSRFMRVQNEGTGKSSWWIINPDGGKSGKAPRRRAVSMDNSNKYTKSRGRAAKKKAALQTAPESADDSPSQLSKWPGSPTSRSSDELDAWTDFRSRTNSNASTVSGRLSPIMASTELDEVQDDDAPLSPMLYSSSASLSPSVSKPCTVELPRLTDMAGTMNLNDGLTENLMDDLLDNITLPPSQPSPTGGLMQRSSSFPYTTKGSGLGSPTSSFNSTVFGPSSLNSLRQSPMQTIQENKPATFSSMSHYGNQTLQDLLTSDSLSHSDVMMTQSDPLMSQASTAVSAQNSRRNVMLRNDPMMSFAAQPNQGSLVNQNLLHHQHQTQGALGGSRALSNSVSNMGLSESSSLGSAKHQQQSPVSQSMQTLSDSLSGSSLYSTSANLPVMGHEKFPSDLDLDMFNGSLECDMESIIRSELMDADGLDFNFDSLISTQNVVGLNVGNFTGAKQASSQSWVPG

For at least one entry, the source does not settle the construct or the ends of the probe. Where cells or extracts were used, other partners may take part.

Regarding “ATGGCCCAGGCACTGTTTACAGCAGCTCT (double strand) [cold probe (unlabeled probe 1)]”, the binding result in data set [1] is on record as “binds”. Regarding “ATGGCCCAGGCACTGTTTACAGCAGCTCT (double strand) [probe 1 (PRNP -1299 to -1292)]”, the binding result in data set [2] was “binds”. The same measure, in the same setting: in the case of “TTGATGCACATATGTTTACAATGCAGCCTC (double strand) [probe 2 (PRNP -1177 to -1170)]” it was “binds”.

For the origin of these results see publication PMC3743769.
